Experimental data: PubChem BioAssay AID652259 (Drosophila RNAi Screening Center, 2013)
The screen tested about 22,000 reagents; this is a random part of those with a known target gene and a result. In the full data, 233 (1.1%) were called active. 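Light values are raw, unnormalised plate reads; the ratio scores behind the reporter calls were not deposited.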 Names joined by + are all predicted targets of the reagent. The record does not give: the amount of reagent, the time to read-out, the dose of the treatment.

Purpose: 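Knock-downs that push a Wingless-driven reporter up or down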 (primary screen)
Cells: Drosophila clone 8 imaginal disc epithelial cells
Reagents: long dsRNA against Drosophila genes
Conditions: pathway stimulated by co-transfected Wingless expression plasmid
Read-out: 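Firefly luciferase from a tcf-site Wingless reporter, measured alongside co-transfected Renilla luciferase that tracks transfection; pathway stimulated by a Wingless plasmid; the firefly-to-Renilla ratio is not deposited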
Scale: firefly reporter light: higher = more Wg reporter light, before normalisation; Renilla control light: higher = more transfected or surviving cells
Hit rule: 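Strong candidates differ from their plate mean by at least two out of four per-plate statistical tests; weak candidates meet just one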
Meaning of the calls: active = candidate regulator (raises or lowers reporter); inactive = not a candidate

predicted target | amplicon | firefly reporter light, replicate 1 | firefly reporter light, replicate 2 | Renilla control light, replicate 1 | Renilla control light, replicate 2 | activity call
CG13501 | DRSC04146 | 2235 | 5221 | 624 | 1860 | inactive
CG9018 | DRSC08618 | 11217 | – | 2565 | – | inactive
CG5377 | DRSC15783 | 35211 | – | 7660 | – | inactive
Iml1 | DRSC08249 | 11725 | – | 5152 | – | inactive
CG12698 | DRSC19485 | 21136 | – | 8540 | – | inactive
Act42A | DRSC04835 | 1868 | 5506 | 709 | 2204 | inactive
CG43084 | DRSC09998 | 6170 | – | 2892 | – | inactive
CG32563 | DRSC19934 | 20405 | – | 9853 | – | inactive
CG32829 | DRSC00961 | 27025 | – | 11749 | – | inactive
CG32829 | DRSC22805 | 3.46e5 | 3.88e5 | 1.26e5 | 1.58e5 | inactive
Rab9Db + Rab9D + Rab9Fa + 1 more | DRSC17662 | 2436 | – | 1187 | – | inactive
DIP-beta | DRSC20489 | 15796 | – | 9184 | – | inactive
DIP-beta | DRSC20490 | 26172 | – | 15264 | – | inactive
DIP-beta | DRSC20505 | 38966 | – | 1927 | – | inactive
Mnt | DRSC17894 | 2769 | 9313 | 844 | 1386 | inactive
Mnt | DRSC18480 | 19168 | – | 10841 | – | inactive
CG18467 | DRSC06758 | 7072 | – | 2770 | – | inactive
alpha-Est3 | DRSC12615 | 4953 | – | 1398 | – | inactive
Cpr78E | DRSC11807 | 13376 | – | 4779 | – | inactive
CG33093 | DRSC15775 | 2979 | – | 1144 | – | inactive
CG17637 | DRSC11740 | 9106 | – | 3052 | – | inactive
CYTB (retired record) | DRSC21272 | 16148 | – | 11656 | – | inactive
mas | DRSC08720 | 6283 | – | 2242 | – | inactive
Cyp311a1 | DRSC20239 | 21172 | – | 11861 | – | inactive
PolD1 | DRSC11138 | 5639 | – | 3050 | – | inactive
CG7376 | DRSC10829 | 4566 | – | 2145 | – | inactive
Atxn7 | DRSC00726 | 13161 | – | 5500 | – | inactive
dare | DRSC07602 | 6346 | – | 2448 | – | inactive
CG31861 | DRSC21665 | 8.83e5 | 8.64e5 | 4.18e5 | 3.84e5 | inactive
CG43894 | DRSC09225 | 3857 | – | 2240 | – | inactive
CG43894 | DRSC10123 | 6293 | – | 1650 | – | inactive
Rpi | DRSC04583 | 4088 | 8295 | 487 | 2233 | inactive
spo | DRSC11127 | 1715 | 4678 | 1296 | 3281 | inactive
CG10064 | DRSC09689 | 1705 | 9658 | 1324 | 3497 | inactive
EMC3 | DRSC02989 | 2602 | 8288 | 1210 | 3837 | inactive
CG10341 | DRSC02040 | 5941 | – | 2477 | – | inactive
CG4709 | DRSC02772 | 7932 | – | 1788 | – | inactive
polyph | DRSC06254 | 2592 | 8233 | 810 | 2848 | inactive
Sry-beta | DRSC16868 | 2600 | 4299 | 541 | 966 | inactive
Ibf2 | DRSC16551 | 18864 | – | 4564 | – | inactive
Tsp66E | DRSC09683 | 1282 | 8579 | 908 | 2531 | inactive
att-ORFB + DPCoAC | DRSC15556 | 19968 | – | 3499 | – | inactive
Ugt49B1 | DRSC04461 | 1488 | 6525 | 646 | 2301 | inactive
lky | DRSC20682 | 17968 | – | 8577 | – | inactive
CG42811 | DRSC15367 | 19138 | – | 16081 | – | inactive
ReepB | DRSC07150 | 13590 | – | 4412 | – | inactive
Doc1 | DRSC11146 | 2885 | 8140 | 1815 | 4381 | inactive
CG46339 | DRSC14136 | 1709 | 7521 | 792 | 2245 | inactive
hbt | DRSC01310 | 10291 | – | 6048 | – | inactive
hbt | DRSC02549 | 3187 | 4537 | 1235 | 2953 | inactive

An excerpt from above, limited to “firefly reporter light, replicate 1”:
spo [DRSC11127] = 1715
CG10064 [DRSC09689] = 1705
EMC3 [DRSC02989] = 2602
CG10341 [DRSC02040] = 5941
CG4709 [DRSC02772] = 7932
polyph [DRSC06254] = 2592
Sry-beta [DRSC16868] = 2600
Ibf2 [DRSC16551] = 18864
